From PMC12186615
Results are given in words; binding and its absence hold for the method and conditions named. Binding seen in cells or lysates may run through a third protein. Here binding means that the protein was enriched with, or labelled near, the bait; the list need not be complete.

Amino acid sequences for entries named in this document (tags omitted).
UniProt A2A9A2: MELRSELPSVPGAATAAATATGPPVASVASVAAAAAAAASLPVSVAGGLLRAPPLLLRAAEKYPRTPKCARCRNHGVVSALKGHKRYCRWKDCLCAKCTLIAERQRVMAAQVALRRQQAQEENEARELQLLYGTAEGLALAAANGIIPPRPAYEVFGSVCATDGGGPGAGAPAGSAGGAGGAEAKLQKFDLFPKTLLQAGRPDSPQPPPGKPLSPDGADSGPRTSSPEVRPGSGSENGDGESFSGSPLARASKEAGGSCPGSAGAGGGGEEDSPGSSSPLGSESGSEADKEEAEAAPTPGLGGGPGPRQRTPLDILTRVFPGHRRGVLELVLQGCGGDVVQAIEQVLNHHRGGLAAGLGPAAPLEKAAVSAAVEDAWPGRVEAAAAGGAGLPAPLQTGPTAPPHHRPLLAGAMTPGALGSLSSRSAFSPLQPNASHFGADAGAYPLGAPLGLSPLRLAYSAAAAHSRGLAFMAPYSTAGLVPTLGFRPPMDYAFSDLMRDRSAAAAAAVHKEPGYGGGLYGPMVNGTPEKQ
UniProt P70288: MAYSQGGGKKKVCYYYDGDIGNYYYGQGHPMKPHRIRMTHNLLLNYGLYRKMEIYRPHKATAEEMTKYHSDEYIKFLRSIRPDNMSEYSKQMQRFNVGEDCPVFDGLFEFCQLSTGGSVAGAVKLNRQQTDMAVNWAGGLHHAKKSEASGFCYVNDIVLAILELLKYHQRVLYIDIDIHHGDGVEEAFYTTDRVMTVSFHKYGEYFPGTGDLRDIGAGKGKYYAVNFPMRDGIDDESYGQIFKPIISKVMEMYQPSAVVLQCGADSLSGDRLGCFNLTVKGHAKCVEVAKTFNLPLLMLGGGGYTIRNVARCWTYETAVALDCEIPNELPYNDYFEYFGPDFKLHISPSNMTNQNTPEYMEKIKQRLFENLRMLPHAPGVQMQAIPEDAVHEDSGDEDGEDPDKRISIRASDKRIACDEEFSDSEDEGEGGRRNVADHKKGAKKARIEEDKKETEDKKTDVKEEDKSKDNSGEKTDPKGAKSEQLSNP
UniProt Q5DTM8: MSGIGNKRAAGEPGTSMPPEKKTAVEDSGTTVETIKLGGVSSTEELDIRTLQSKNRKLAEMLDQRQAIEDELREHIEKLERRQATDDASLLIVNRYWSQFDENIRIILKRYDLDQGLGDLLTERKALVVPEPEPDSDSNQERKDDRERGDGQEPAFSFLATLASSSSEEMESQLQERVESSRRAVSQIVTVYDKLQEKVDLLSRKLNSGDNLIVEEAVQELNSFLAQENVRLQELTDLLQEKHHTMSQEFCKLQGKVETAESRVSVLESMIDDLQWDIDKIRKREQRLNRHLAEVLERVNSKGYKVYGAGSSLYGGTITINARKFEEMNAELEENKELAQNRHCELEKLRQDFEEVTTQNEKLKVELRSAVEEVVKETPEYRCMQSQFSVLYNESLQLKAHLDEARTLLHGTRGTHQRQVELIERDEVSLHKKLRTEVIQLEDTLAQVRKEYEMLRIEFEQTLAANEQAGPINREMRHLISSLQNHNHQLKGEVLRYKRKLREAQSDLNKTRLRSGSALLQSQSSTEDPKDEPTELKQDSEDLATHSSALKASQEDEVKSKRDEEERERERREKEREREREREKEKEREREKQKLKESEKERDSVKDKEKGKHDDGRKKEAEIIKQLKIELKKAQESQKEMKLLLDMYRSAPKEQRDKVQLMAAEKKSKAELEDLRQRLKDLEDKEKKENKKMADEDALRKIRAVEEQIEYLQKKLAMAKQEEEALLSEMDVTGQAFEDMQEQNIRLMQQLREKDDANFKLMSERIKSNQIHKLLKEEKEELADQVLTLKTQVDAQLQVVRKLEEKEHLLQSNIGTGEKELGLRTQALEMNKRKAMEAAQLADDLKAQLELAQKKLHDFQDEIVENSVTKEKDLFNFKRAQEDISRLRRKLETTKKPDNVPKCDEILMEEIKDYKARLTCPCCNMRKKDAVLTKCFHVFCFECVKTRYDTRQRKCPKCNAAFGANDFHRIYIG
UniProt Q6PDQ2: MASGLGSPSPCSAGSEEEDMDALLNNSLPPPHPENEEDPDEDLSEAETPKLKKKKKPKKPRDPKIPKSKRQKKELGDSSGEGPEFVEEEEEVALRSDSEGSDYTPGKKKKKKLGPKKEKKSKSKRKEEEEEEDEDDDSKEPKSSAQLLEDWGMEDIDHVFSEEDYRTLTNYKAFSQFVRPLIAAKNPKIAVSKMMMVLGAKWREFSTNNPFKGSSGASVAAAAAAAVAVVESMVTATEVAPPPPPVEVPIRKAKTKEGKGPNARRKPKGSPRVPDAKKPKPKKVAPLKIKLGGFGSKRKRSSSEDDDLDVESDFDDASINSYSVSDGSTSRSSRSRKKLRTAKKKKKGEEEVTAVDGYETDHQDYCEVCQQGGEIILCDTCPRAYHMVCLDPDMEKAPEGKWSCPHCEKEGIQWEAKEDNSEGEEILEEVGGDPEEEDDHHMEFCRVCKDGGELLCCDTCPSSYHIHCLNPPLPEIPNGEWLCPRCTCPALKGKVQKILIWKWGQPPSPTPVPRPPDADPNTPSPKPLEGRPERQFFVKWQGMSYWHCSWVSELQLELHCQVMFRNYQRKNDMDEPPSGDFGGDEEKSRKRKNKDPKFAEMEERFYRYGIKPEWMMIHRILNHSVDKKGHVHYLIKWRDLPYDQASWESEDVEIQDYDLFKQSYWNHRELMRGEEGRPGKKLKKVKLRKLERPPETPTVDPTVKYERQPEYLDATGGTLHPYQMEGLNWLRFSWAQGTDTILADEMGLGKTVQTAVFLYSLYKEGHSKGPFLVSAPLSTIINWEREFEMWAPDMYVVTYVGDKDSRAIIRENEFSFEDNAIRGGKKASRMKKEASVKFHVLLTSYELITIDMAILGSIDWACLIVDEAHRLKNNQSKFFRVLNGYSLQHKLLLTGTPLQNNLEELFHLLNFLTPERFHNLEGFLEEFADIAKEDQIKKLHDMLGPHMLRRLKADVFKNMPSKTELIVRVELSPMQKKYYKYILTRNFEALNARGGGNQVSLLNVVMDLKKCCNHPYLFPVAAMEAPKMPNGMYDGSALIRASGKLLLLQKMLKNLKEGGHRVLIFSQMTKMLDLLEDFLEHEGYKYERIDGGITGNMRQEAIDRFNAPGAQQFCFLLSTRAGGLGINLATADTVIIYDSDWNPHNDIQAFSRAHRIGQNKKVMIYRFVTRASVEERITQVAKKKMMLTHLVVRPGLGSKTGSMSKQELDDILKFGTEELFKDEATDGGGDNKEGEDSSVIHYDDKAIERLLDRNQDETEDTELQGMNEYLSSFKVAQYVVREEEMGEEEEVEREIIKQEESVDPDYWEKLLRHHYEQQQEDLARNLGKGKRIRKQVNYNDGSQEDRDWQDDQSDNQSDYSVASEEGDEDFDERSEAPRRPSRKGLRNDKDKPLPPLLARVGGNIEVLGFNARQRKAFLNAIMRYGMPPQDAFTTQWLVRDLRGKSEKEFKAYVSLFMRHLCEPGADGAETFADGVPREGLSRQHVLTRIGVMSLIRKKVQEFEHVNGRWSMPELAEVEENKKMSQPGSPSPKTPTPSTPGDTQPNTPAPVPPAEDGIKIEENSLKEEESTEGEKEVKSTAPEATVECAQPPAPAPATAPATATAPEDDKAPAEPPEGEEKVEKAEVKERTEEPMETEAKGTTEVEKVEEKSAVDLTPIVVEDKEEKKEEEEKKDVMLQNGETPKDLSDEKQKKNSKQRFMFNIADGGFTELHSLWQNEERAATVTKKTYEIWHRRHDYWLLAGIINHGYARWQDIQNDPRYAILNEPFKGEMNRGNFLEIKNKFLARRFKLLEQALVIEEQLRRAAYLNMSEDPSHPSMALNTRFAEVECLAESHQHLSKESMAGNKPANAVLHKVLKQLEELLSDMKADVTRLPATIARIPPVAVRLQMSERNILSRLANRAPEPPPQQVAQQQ
UniProt Q8CFG4: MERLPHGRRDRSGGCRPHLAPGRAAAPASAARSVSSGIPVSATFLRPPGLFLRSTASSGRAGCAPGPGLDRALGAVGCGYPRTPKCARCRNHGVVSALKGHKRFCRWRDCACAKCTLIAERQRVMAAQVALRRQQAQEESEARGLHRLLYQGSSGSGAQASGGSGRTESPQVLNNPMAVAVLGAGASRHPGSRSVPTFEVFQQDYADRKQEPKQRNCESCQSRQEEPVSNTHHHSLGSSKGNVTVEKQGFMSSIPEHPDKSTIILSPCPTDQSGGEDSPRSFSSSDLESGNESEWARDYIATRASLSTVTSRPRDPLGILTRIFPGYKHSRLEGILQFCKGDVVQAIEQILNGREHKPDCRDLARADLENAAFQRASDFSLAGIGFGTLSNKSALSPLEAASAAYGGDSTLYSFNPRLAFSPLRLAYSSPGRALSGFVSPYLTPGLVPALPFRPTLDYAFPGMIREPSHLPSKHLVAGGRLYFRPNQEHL
UniProt O09106: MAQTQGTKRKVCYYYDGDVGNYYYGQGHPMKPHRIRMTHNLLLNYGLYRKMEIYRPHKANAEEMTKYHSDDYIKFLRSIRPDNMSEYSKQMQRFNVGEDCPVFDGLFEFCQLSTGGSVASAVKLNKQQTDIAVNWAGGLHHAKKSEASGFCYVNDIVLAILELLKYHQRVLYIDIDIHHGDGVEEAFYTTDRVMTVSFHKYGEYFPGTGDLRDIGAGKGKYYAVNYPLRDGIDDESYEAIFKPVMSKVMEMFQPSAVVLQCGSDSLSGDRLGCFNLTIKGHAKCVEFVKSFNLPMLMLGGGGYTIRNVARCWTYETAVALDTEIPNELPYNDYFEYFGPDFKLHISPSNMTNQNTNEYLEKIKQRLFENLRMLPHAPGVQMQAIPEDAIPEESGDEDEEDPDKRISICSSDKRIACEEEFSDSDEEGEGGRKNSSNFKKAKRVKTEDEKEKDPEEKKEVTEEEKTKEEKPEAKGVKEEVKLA
UniProt Q80WT2: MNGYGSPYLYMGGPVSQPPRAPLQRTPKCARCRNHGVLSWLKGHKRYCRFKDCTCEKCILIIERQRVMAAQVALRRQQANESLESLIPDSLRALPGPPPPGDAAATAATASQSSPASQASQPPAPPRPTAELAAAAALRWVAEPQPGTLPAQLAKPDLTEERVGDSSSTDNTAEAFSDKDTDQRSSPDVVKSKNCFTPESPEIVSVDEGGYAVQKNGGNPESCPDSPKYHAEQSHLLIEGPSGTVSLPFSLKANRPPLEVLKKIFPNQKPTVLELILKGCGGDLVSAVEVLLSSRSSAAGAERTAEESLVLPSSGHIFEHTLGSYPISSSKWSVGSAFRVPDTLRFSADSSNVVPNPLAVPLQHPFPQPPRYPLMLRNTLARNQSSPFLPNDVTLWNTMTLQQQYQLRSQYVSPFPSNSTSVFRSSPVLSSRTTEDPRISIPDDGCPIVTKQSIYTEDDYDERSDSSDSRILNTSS

Target: Dmrta2 with an N-terminal 2x HA epitope (Dmrta2^2XHA knock-in allele) (mouse) (UniProt A2A9A2)
Test: affinity purification with mass spectrometry; RIME: E12.5 cortices of Dmrta2^2XHA and WT control embryos fixed in 1% formaldehyde, sonicated chromatin extract, anti-HA antibody on Protein G magnetic beads overnight at 4°C, RIPA washes (0.5 M LiCl), nano-LC-ESI-MS/MS

| Molecule | binding |
| --- | --- |
| HDAC2 (endogenous, embryonic cortex) (from UniProt P70288 1-488) (enzyme) | binds |
| E3 ubiquitin ligase BRE1a (from UniProt Q5DTM8 1-973) (enzyme) | binds |
| Zfp462 (from UniProt B1AWL2 1-2495) | binds |
| Zfp423 (endogenous, embryonic cortex) (protein, UniProt Q80TS5 1-1292) MSRRKQAKPRSVKVEEGEASDFSLAWDSSVAAAGGLEGEPECDRKTSRALEDRNSVTSQEERNEDDEDVEDESIYTCDHCQQDFESLADLTDHRAHRCPGDGDDDPQLSWVASSPSSKDVASPTQMIGDGCDLGLGEEEGGTGLPYPCQFCDKSFIRLSYLKRHEQIHSDKLPFKCTFCSRLFKHKRSRDRHIKLHTGDKKYHCHECEAAFSRSDHLKIHLKTHSSSKPFKCSVCKRGFSSTSSLQSHMQAHKKNKEHLAKSEKEAKKDDFMCDYCEDTFSQTEELEKHVLTLHPQLSEKADLQCIHCPEVFVDESTLLAHIHQAHANQKHKCPMCPEQFSSVEGVYCHLDSHRQPDSSNHSVSPDPVLGSVASMSSATPDSSASVERGSTPDSTLKPLRGQKKMRDDGQSWPKVVYSCPYCSKRDFTSLAVLEIHLKTIHADKPQQSHTCQICLDSMPTLYNLNEHVRKLHKSHAYPVMQFGNISAFHCNYCPEMFADINSLQEHIRVSHCGPNANPPDGNNAFFCNQCSMGFLTESSLTEHIQQAHCSVGSTKLESPVVQPTQSFMEVYSCPYCTNSPIFGSILKLTKHIKENHKNIPLAHSKKSKAEQSPVSSDVEVSSPKRQRLSGSANSISNGEYPCNQCDLKFSNFESFQTHLKLHLELLLRKQACPQCKEDFDSQESLLQHLTVHYMTTSTHYVCESCDKQFSSVDDLQKHLLDMHTFVLYHCTLCQEVFDSKVSIQVHLAVKHSNEKKMYRCTACNWDFRKEADLQVHVKHSHLGNPAKAHKCIFCGETFSTEVELQCHITTHSKKYNCRFCSKAFHAVILLEKHLREKHCVFDAAAENGTANGVPPTSTKKAEPADLQGMLLKNPEAPNSHEASEDDVDASEPMYGCDICGAAYTMEVLLQNHRLRDHNIRPGEDDGSRKKAEFIKGSHKCNVCSRTFFSENGLREHLQTHRGPAKHYMCPICGERFPSLLTLTEHKVTHSKSLDTGTCRICKMPLQSEEEFIEHCQMHPDLRNSLTGFRCVVCMQTVTSTLELKIHGTFHMQKLAGSSAASSPNGQGLQKLYKCALCLKEFRSKQDLVRLDVNGLPYGLCAGCMARSANGQVGGLAPPEPADRPCAGLRCPECNVKFESAEDLESHMQVDHRDLTPETSGPRKGAQTSPVPRKKTYQCIKCQMTFENEREIQIHVANHMIEEGINHECKLCNQMFDSPAKLLCHLIEHSFEGMGGTFKCPVCFTVFVQANKLQQHIFAVHGQEDKIYDCSQCPQKFFFQTELQNHTMSQHAQ | binds |

Results, then the molecule that gave them:

| binding | Molecule |
| --- | --- |
| binds | CHD4 (from UniProt Q6PDQ2 1-1915) |
| binds | Dmrta1 (from UniProt Q8CFG4 1-490) |
| binds | HDAC1 (endogenous, embryonic cortex) (from UniProt O09106 1-482) (enzyme) |
| binds | Dmrt3 (endogenous, embryonic cortex) (from UniProt Q80WT2 1-476) |
| binds | Zfp521 (protein, UniProt Q6KAS7 1-1311) MSRRKQAKPRSLKDPNCKLEDKIEDGEAVDCKKRPEDGEELEEDAVHSCDSCLQVFESLSDITEHKIHQCQLTDGVDVEDDPSCSWPASSPSSKDQTSPSHGEGCDFGEEEGGPGLPYPCQFCDKSFSRLSYLKHHEQSHSDKLPFKCTYCSRLFKHKRSRDRHIKLHTGDKKYHCSECDAAFSRSDHLKIHLKTHTSNKPYKCAVCRRGFLSSSSLHGHMQVHERNKDGSQSGSRMEDWKMKDTQKCSQCEEGFDFPEDLQKHIAECHPECSPNEDRAALQCMYCHELFVEETSLMNHIEQVHGGEKKNSCSICSESFLTVEELYSHMDSHQQPESCNHSNSPSLVTVGYTSVSSTTPDSNLSVDSSTMVEAAPPIPKSRGRKRAAQQTSDMTGPSSKQAKVTYSCIYCNKQLFSSLAVLQIHLKTMHLDKPEQAHICQYCLEVLPSLYNLNEHLKQVHEAQDPGLIVSAMPAIVYQCNFCSEVVNDLNTLQEHIRCSHGFANPAAKDSNAFFCPHCYMGFLTDSSLEEHIRQVHCDLSGSRFGSPVLGTPKEPVVEVYSCSYCTNSPIFNSVLKLNKHIKENHKNIPLALNYIHNGKKSRALSPLSPVAIEQTTLKMMQTVGGGPARASGEYICNQCGAKYTSLDSFQTHLKTHLDTVLPKLTCPQCNKEFPNQESLLKHVTIHFMITSTYYICESCDKQFTSVDDLQKHLLDMHTFVFFRCTLCQEVFDSKVSIQLHLAVKHSNEKKVYRCTSCNWDFRNETDLQLHVKHNHLENQGKVHKCIFCGESFGTEVELQCHITTHSKKYNCRFCSKAFHAVILLEKHLREKHCVFETKTPNCGTNGASEQVQKEEAELQTLLTNSQESHNSHDGSEEDVDSSEPMYGCDICGAAYTMETLLQNHQLRDHNIRPGESAIVKKKAELIKGNYKCNVCSRTFFSENGLREHMQTHLGPVKHYMCPICGERFPSLLTLTEHKVTHSKSLDTGNCRICKMPLQSEEEFLEHCQMHPDLRNSLTGFRCVVCMQTVTSTLELKIHGTFHMQKTGNGSSVQTTGRGQHVQKLYKCASCLKEFRSKQDLVKLDINGLPYGLCAGCVNLSKSSSPGLSLPPGASRPGLGQNESLSAMEGKGKAGGLKTRCSSCNVKFESESELQNHIQTVHRELVPDANSTQLKTPQVSPMPRISPSQSDEKKTYQCIKCQMVFYNEWDIQVHVANHMIDEGLNHECKLCSQTFDSPAKLQCHLIEHSFEGMGGTFKCPVCFTVFVQANKLQQHIFSAHGQEDKIYDCTQCPQKFFFQTELQNHTMTQHSS |
